PubChem BioAssay AID652272 | Drosophila RNAi Screening Center – 2013
In all, the deposit lists about 21,000 reagents; shown is an unselected part of those with a known target gene and a result. Of all reagents, 503 (2.4%) are marked active. 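Raw plate light values, not normalised; calls rest on replicate z-scores that were not deposited; hits include reporter decreases as well as increases.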 A plus sign joins genes that one reagent is predicted to hit. Reagent sequences are not shown. Not given: the amount of reagent, the time to read-out.

- Purpose: 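Genes whose knock-down decreases or increases Hedgehog reporter output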 (primary screen)
- Cell system: Drosophila clone 8 (Cl8) cells
- Knock-down reagent: long dsRNA against Drosophila genes
- Measurement: 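Plate reader light from a firefly reporter under a ptc promoter fragment that responds to Hedgehog, with Renilla light as transfection reference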
- Scale: firefly Hh reporter signal: higher = more ptc reporter light; Renilla reference signal: higher = more Renilla control light
- Hit rule: 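Hit when the z-score averaged over two replicates is under -2 or over +3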
- Meaning of the calls: active = hit: reporter lowered or raised; inactive = not a hit

gene knocked down | dsRNA | firefly Hh reporter signal, replicate 1 | firefly Hh reporter signal, replicate 2 | firefly Hh reporter signal, replicate 3 | Renilla reference signal, replicate 1 | Renilla reference signal, replicate 2 | call
CG30411 | DRSC04004 | 1.48e5 | 2.08e5 | – | 3308 | 9476 | inactive
asRNA:CR42743 + CG34162 | DRSC01190 | 5.90e5 | 1.77e5 | – | 28404 | 8960 | inactive
CG43091 | DRSC13571 | 43912 | 1.70e5 | – | 9312 | 4059 | inactive
cyc (cycle) | DRSC11337 | 61923 | 1.14e5 | – | 2776 | 3336 | inactive
mRpL54 (mitochondrial ribosomal protein L54) | DRSC04545 | 1.52e5 | 87892 | – | 4759 | 3065 | inactive
Bap60 (Brahma associated protein 60kD) | DRSC19337 | 71496 | 44746 | – | 2347 | 1628 | inactive
l(2)dtl (lethal-(2)-denticleless) | DRSC04697 | 1.51e5 | 91936 | – | 6498 | 4293 | inactive
Nup160 (Nucleoporin 160kD) | DRSC02774 | 45737 | 32867 | – | 1264 | 4346 | inactive
Acph-1 (Acid phosphatase 1) | DRSC14103 | 91536 | 97621 | – | 4048 | 4156 | inactive
CG43774 + CG43773 | DRSC00287 | 1.31e5 | 69232 | – | 2690 | 4327 | inactive
CG43774 + CG43773 | DRSC00288 | 1.20e5 | 62035 | – | 3328 | 5511 | inactive
CG10822 | DRSC06005 | 91748 | 45900 | – | 2378 | 3104 | inactive
CG31642 | DRSC02919 | 1.31e5 | 80550 | – | 4192 | 3525 | inactive
CG34248 | DRSC09426 | 2.25e5 | – | – | 4899 | – | inactive
Or33b (Odorant receptor 33b) | DRSC03387 | 1.03e5 | 43308 | – | 1905 | 3984 | inactive
mats (mob as tumor suppressor) | DRSC13562 | 55522 | 1.95e5 | – | 10813 | 4194 | inactive
mats (mob as tumor suppressor) | DRSC14702 | 1.31e5 | 91540 | – | 5559 | 3722 | inactive
SCaMC | DRSC10293 | 96560 | 74801 | – | 3847 | 2747 | inactive
SCaMC | DRSC10415 | 77453 | 40665 | 35443 | 3299 | 1393 | inactive
mEFTs (mitochondrial translation elongation factor Ts) | DRSC02953 | 46068 | 1.04e5 | – | 2176 | 3524 | inactive
Yip1d1 (Yip1 domain-containing 1) | DRSC02166 | 1.42e5 | 73707 | – | 3952 | 6518 | inactive
Gagr (Gag-related) | DRSC10441 | 1.41e5 | 66971 | – | 5282 | 2596 | inactive
Ilp7 (Insulin-like peptide 7) | DRSC17895 | 1.04e5 | 2.46e5 | – | 2071 | 10870 | inactive
CG5815 | DRSC14135 | 1.51e5 | 1.57e5 | – | 5642 | 4233 | inactive
SmD3 (Small ribonucleoprotein particle protein SmD3) | DRSC07553 | 65787 | 35394 | – | 2077 | 3168 | inactive
CG5445 | DRSC19943 | 94215 | 1.32e5 | – | 2263 | 6772 | inactive
p24-1 (p24-related-1) | DRSC19827 | 40091 | 1.27e5 | – | 1312 | 5331 | inactive
CG30105 | DRSC05668 | 91926 | 2.44e5 | – | 1946 | 9242 | inactive
Pink1 (PTEN-induced putative kinase 1) | DRSC18361 | 93656 | 59737 | – | 2500 | 1529 | inactive
Dlg5 (Discs large 5) | DRSC02964 | 63186 | 98071 | – | 2708 | 4326 | inactive
obst-F (obstructor-F) | DRSC10805 | 99044 | 97520 | – | 3025 | 2930 | inactive
CG13891 | DRSC08361 | 80827 | 45674 | – | 2704 | 3186 | inactive
Nup107 (Nucleoporin 107kD) | DRSC01999 | 68732 | 26605 | – | 2224 | 2883 | inactive
CG11356 | DRSC19401 | 67512 | 2.26e5 | – | 1690 | 9264 | inactive
CG14644 | DRSC12230 | 1.04e5 | 1.36e5 | – | 3699 | 24573 | inactive
CG4991 | DRSC19928 | 91481 | 1.39e5 | – | 2356 | 3133 | inactive
Theg (Testicular haploid expressed gene) | DRSC16023 | 1.09e5 | 76064 | – | 4311 | 2753 | inactive
AkhR (Adipokinetic hormone receptor) | DRSC03329 | 71608 | 49616 | – | 3053 | 2176 | inactive
CG32269 + CG32270 | DRSC08195 | 1.04e5 | 53928 | – | 3457 | 3539 | inactive
CG33109 | DRSC16533 | 1.09e5 | 83248 | – | 2032 | 2010 | inactive
Mef2 (Myocyte enhancer factor 2) | DRSC07468 | 56309 | 48544 | – | 3434 | 2384 | inactive
Pstk + CG14210 + Tim9b | DRSC19566 | 38457 | 1.09e5 | – | 2165 | 9218 | active
MFS3 (Major Facilitator Superfamily Transporter 3) | DRSC00664 | 1.51e5 | 98685 | – | 3242 | 2592 | inactive
Cpes (Ceramide phosphoethanolamine synthase) | DRSC04475 | 34998 | 26796 | – | 2306 | 1984 | active
sona (sol narae) | DRSC04089 | 69069 | 65891 | – | 1665 | 5045 | inactive
sona (sol narae) | DRSC04574 | 70497 | 50727 | – | 2178 | 5312 | inactive
sona (sol narae) | DRSC04575 | 74978 | 52473 | – | 2512 | 5297 | inactive
MFS10 (Major Facilitator Superfamily Transporter 10) | DRSC19888 | 95757 | 69285 | – | 2440 | 1825 | inactive
Sh3beta | DRSC11001 | 1.76e5 | 1.10e5 | – | 5482 | 3585 | inactive
CR42546 (pseudo) | DRSC03711 | 84720 | 70956 | – | 1840 | 6553 | inactive
CG4631 | DRSC02766 | 2.16e5 | 4.49e5 | 67202 | 5081 | 23992 | inactive
Nepl4 (Neprilysin-like 4) | DRSC03239 | 86090 | 73398 | – | 2796 | 2715 | inactive
CCDC151 (Coiled-coil domain containing protein 151) | DRSC10131 | 52220 | 30422 | 37001 | 4144 | 3424 | inactive
CG40005 (retired record) + cta | DRSC03763 | 1.83e5 | 3.32e5 | – | 5035 | 14115 | inactive
Ptpmeg (Protein tyrosine phosphatase Meg) | DRSC08684 | 57491 | 66720 | – | 3161 | 3128 | inactive
CG4456 + Hsp22 | DRSC11187 | 34690 | 58333 | 57532 | 5517 | 4331 | inactive
CG4456 + Hsp22 | DRSC11192 | 1.59e5 | 83010 | – | 5971 | 3525 | inactive
CG14624 | DRSC18634 | 70704 | 1.53e5 | – | 1876 | 5416 | inactive
Pgam5-2 (Phosphoglycerate mutase 5-2) | DRSC04278 | 68953 | 65158 | – | 1440 | 5229 | inactive
Vps28 (Vacuolar protein sorting 28) | DRSC06168 | 81098 | 70471 | – | 3378 | 2923 | inactive
CG11052 | DRSC14288 | 1.04e5 | 1.46e5 | – | 4604 | 4412 | inactive
CG4983 | DRSC02799 | 84550 | 49504 | – | 3393 | 2434 | inactive
Karl | DRSC19883 | 1.08e5 | 73312 | – | 2919 | 1890 | inactive
E5 | DRSC13000 | 22650 | 1.71e5 | – | 784 | 3830 | inactive
E5 | DRSC16585 | 32890 | 14288 | – | 1590 | 725 | active
e (ebony) | DRSC16936 | 88200 | 79069 | – | 3379 | 3057 | inactive
RapGAP1 (Rap GTPase activating protein 1) | DRSC02293 | 1.27e5 | 4.97e5 | 58192 | 3084 | 30331 | inactive
RapGAP1 (Rap GTPase activating protein 1) | DRSC02294 | 94563 | 51210 | – | 2757 | 4699 | inactive
RapGAP1 (Rap GTPase activating protein 1) | DRSC02295 | 1.42e5 | 64884 | – | 3440 | 6364 | inactive
RapGAP1 (Rap GTPase activating protein 1) | DRSC03406 | 92884 | 1.09e5 | – | 2796 | 5082 | inactive
piwi (P-element induced wimpy testis) | DRSC03592 | 74315 | 46465 | – | 3448 | 2099 | inactive
Oatp33Eb (Organic anion transporting polypeptide 33Eb) | DRSC02955 | 1.53e5 | 80279 | – | 3847 | 7264 | inactive
Sf3b3 (Splicing factor 3b subunit 3) | DRSC08370 | 59242 | 67037 | – | 3751 | 3703 | inactive
